According to patent publication US8389231B2, “Assays, method and compositions that exploit a mycobacterial iron acquistion pathway in cells” (The Trustees of Princeton University, priority 2005, dated 2013):
“Also recorded” adds a separate entry of the source.

System: macrophages (THP-1 cell line)
Assay: Fluorescent confocal microscopy of intracellular distribution in macrophages
Assay type: cell-based, human

gallium-mycobactin J [Ga-MJ]
intracellular distribution within macrophages (2 μM, macrophage culture 1×10^5 cells/ml, 20-120 min incubation): preferential affinity for lipid-droplets; also recorded: preferentially localized in a single intracellular structure
interaction of Ga-MJ-laden lipid droplets with phagosomes containing fluorescent E. coli (macrophages with fluorescence-labeled E. coli phagosomes, 2 μM Ga-MJ, two hrs): direct contacts with phagosomes
